# Library screen at single concentrations

Amino acid sequences for entries named in this document (tags omitted). Residues count along the entry.
UniProt Q4DA54, 1-478: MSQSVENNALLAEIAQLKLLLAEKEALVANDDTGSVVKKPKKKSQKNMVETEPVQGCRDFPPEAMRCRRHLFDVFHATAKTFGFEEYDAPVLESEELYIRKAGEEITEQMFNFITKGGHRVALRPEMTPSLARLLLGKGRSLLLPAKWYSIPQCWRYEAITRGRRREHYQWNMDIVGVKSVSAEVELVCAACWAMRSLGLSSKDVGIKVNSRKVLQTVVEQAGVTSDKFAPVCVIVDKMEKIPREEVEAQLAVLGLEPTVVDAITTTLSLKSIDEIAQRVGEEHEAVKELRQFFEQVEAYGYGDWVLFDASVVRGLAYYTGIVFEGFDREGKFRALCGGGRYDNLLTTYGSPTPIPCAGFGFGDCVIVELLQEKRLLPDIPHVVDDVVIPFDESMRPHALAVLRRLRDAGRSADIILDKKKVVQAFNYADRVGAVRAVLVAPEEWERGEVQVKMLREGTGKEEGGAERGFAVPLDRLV
UniProt P9WNZ1, whole entry: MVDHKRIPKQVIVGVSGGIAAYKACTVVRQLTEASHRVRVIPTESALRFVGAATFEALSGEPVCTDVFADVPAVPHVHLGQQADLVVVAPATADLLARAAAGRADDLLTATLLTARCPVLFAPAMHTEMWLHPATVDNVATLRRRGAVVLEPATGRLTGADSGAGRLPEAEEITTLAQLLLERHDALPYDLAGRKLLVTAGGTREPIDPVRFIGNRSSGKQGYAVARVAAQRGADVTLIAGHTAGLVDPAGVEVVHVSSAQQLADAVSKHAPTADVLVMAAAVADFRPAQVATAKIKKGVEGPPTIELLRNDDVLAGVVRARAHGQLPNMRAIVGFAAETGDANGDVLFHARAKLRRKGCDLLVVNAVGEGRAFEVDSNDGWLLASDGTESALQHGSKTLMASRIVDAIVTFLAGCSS

Measurements from “University of Dundee, Small-Polar-MMV Screening Library” (2021), ChEMBL document CHEMBL3988442.

Toxoplasma: 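Assay of Toxoplasma gondii numbers, read through their beta-galactosidase reporter with a colour substrate. Compounds at 10 µM. The record gives no direction; the compounds picked for IC50 retests had high values, so higher reads as fewer parasites. About 67,000 compounds were tested under these conditions; 0.38% (about 260) showed 50% or more at least once.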
TcHisRS: 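Histidine-tRNA ligase, Trypanosoma cruzi CL Brener (UniProt Q4DA54). Enzyme assay of histidyl-tRNA synthetase; the read-out is not stated. Compounds at 30 µM. Direction is inferred from retests: higher values go with stronger inhibition. About 69,000 compounds were tested under these conditions; 0.045% (about 31) showed 50% or more at least once.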
CoaBC: 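Coenzyme A biosynthesis protein CoaBC, Mycobacterium tuberculosis (UniProt P9WNZ1). Enzyme assay of CoaBC with a phosphate dye (Biomol Green) read at 650 nm. Tested at 30 µM. Direction is inferred from only a few compounds that gave an IC50; most scored high, so higher reads as stronger inhibition. Most strong results did not repeat in a second test. Size under these conditions: about 67,000 compounds, about 40 of them at 50% or above in at least one test.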
Leishmania in macrophages: 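Cell assay of Leishmania donovani living inside macrophages; the read-out is not stated. Tested at 30 µM. Higher reads as stronger inhibition (inferred: compounds with an IC50 in retests scored well above the rest). Of about 69,000 compounds tested this way, about 1,000 (1.5%) reached 50% or more in at least one test.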

Values are the deposited “Percent Effect”, in %.
The controls that fix the scale are not given in the record; negative values are as filed.
Compounds were drawn at random from those tested, without regard to their results.
A dash means the value is not listed here; it may have been measured.

Compound	Toxoplasma	TcHisRS	CoaBC	Leishmania in macrophages
Cc1nc(C)n(CC2CCCCN2Cc2nc(-c3ccoc3)no2)n1 (stereo not drawn)	-10.05	4.734	5.957	11.76
O=C1CC2(CCCCC2)CC(=O)N1CC(O)COCc1ccc(Cl)cc1 (stereo not drawn)	-3.456	-0.8475	-11.89	1.762
O=C(O)C(F)(F)F.[H][C@]12CN(CCN(C)C)C(=O)[C@@]1([H])CN(c1ccccc1)C2	5.611	-	-	29.03
CCOc1cc(CNC(=O)CNC(=O)CC2CCCCC2)ccn1	16.6	-0.4425	6.075	19.67
[H][C@@]12C[C@@H](O)CN1C[C@H](Cc1ccccc1)N(Cc1cnc(OC)nc1)C2	13.8	-	-	1.367
CCc1noc(CN(CC)C(=O)c2ccc3ncsc3c2)n1	-11.27	4.545	8.343	-21.19
[H][C@@]12CNC[C@@]1([H])N(CC(C)C)C(=O)CO2	9.821	-	-	16.1
CCOCC(=O)N1C[C@@H]2CCN(c3cnccn3)C[C@@H]2C1	-	4.327	-1.647	-
CCc1c(C)nn(CC(=O)NC(C(=O)O)c2c(C)n[nH]c2C)c1C (stereo not drawn)	-24.93	-2.41	5.693	12.75
O=C(c1cccc2ncccc12)N1CCC(Nc2cccnn2)CC1	-42.83	7.493	1.364	22.72
CCc1nc(CC(=O)N2CCCC2Cn2cccn2)cs1 (stereo not drawn)	1.471	-1.887	0.1304	7.882
c1ccc(CO[C@H]2CO[C@@]3(CCCN(Cc4ccncc4)C3)C2)nc1	-8.725	4.878	10.53	-1.777
COCC(=O)N1CCc2[nH]nc(-c3ccc4c(c3)OCO4)c2C1	16.42	0	3.738	21.2
CNC(=O)C(C)(C)N1CCC[C@H]1C(=O)NCCN(C)C	-	0.9901	6.998	-
CSc1nc2ncc3c(=O)n(CCN4CCCCC4)ccc3n2n1	9.441	7	1.453	7.709
[H][C@]12CC[C@]([H])(CN(Cc3ccccc3)C1)N(C(=O)c1ccc(F)cc1F)C2	1.671	-	-	16.39
Cc1nc2ccc(-n3ncnc3[C@@H]3CCCN3S(C)(=O)=O)cc2s1	0.05013	-9.836	2.2	99.47
NC(=O)c1ccc(C2CN(Cc3ccc(F)cc3)CCO2)nc1 (stereo not drawn)	-5.07	0	-6.994	-23.59
CNC(=O)CN1CC[C@H]2CN(C(=O)c3ccc(C)cc3)C[C@H]2C1	-	6.542	-1.235	-
CCN(C(=O)c1nc2c(s1)CCCN2S(C)(=O)=O)C(C)C	-23.66	9.497	1.333	32.48
Cc1cc(CC(C)NC(=O)COc2ccc(F)cc2F)[nH]n1 (stereo not drawn)	4.469	11.45	0.6098	-25.06
COc1cccc2c1N(CC(=O)Nc1ccc(Br)cn1)CCC2	30.47	5.102	2.303	7.893
O=C(O)C(F)(F)F.c1c2c(nn1CC1CCOCC1)C(CNC1CCOCC1)OCC2 (stereo not drawn)	11.48	-	-	-7.536
O=C(O)C(F)(F)F.[H][C@@]12C[C@@H](c3nc(C)cs3)O[C@]1([H])CN(c1ncc(F)cn1)C2	21.56	-	-	-18.15
Cc1noc([C@@H]2C[C@@H]3CCN(c4nnc(C)s4)C[C@H]3O2)n1	-	-5.525	-1.485	-
COc1cccc(-c2nccnc2C2CCN(C(C)=O)CC2)c1	-0.4484	1.622	-6.389	4.642
NC(=O)Cn1cc(NC(=O)N2CCN(c3ccc(F)cc3)CC2)cn1	28.03	4.706	0.5115	-6.69
O=C(O)C(F)(F)F.O=C(O)C(F)(F)F.[H][C@@]12CCN(Cc3nccs3)C[C@]1([H])O[C@@H](C(=O)Nc1cccnc1)C2	5.695	-	-	24.17
CCOC1CC2(CCN(Cc3cnn(C)c3)CC2)c2ccc(C)cc21 (stereo not drawn)	2.51	8.046	-6.762	28.51
CC(=O)N[C@@H]1CN(Cc2ccccc2C(=O)O)C[C@H]1C(C)C	-2.663	-0.5435	4.959	13.3
CCN1CCN(CCCNc2ncccn2)CC1	-0.8626	5.6	-3.185	17.58
CCc1nc2c(N3CCC4(CC3)CNC(=O)C4)ncnc2o1	-1.955	1.064	3.213	11.46
CSc1cccc(CN(C)C(=O)C2CC(=O)N(CCN(C)C)C2)c1 (stereo not drawn)	-7.599	1.245	-5.357	5.588
[H][C@@]12CCN(C[C@@H]1C(=O)NC1CCCCC1)[C@@H](Cn1cc(CNC)nn1)C2	-3.792	-	-	19.98
C=C(C)COc1cccc(CN(C)C(C)c2ccncn2)c1 (stereo not drawn)	-3.831	7.263	-4.435	20.68
Cc1ccc(C(=O)N(CC2CCCO2)c2ccncc2)o1 (stereo not drawn)	1.078	3.96	4.479	23.81
CN(C)CCn1nc(C2CCN(S(=O)(=O)N(C)C)C2)c2cccnc21 (stereo not drawn)	0.7782	6	-1.826	5.74
COc1ccc(Cl)cc1NCC(=O)NCc1cccnc1OC	-36.05	5.814	7.895	35.6
CCCN1CC(C(=O)Nc2ccccn2)CC1=O (stereo not drawn)	0.4616	0.8333	4.904	15.91
CC1CN=C(N2CCN(C(=O)Nc3nc(-c4ccccc4)ns3)CC2)S1 (stereo not drawn)	1.116	5.085	1.322	-7.527
O=S(=O)(NCCC(O)c1ccoc1)c1ccc(Cl)s1 (stereo not drawn)	-9.23	2.404	1.908	6.265
Cc1c(C)n2c(SCC(=O)N3CCOCC3)nnc2[nH]c1=O	15.63	9.845	-0.7856	25.69
Cc1cccc(S(=O)(=O)N2CCCC3(CCCN3S(C)(=O)=O)C2)c1 (stereo not drawn)	25.4	5.607	-20	-1.214
CN1CCN(c2nsc(-c3ccccc3)c2C#N)CC1	7.728	5.752	0.7009	-17.36
CC(=O)N1CCN(C(=O)NCc2ccccc2Cn2ccnc2)CC1	-2.697	5.155	1.711	5.213
CC(C)Oc1ccc(CNC(=O)CC(F)(F)F)cc1F	-4.959	0.7576	7.846	4.031
NC1CCN(S(=O)(=O)c2ccc(C(=O)N3CCSCC3)cc2)C1 (stereo not drawn)	0.1198	2.062	7.547	-4.19
Cc1cnc(CN(C)C2CCN(CC(=O)Nc3c(C)n[nH]c3C)C2)o1 (stereo not drawn)	-	3.008	-2.057	4.609
[H][C@@]12CN(c3cc(OC)ncn3)C[C@@H](C(=O)NC3CC3)[C@]1([H])CCO2	8.389	-	-	26.11
CNc1oc(-c2ccc(OC)c(S(=O)(=O)N3CCCCC3)c2)nc1C#N	-6.336	-1.639	6.864	30.32
CN(C)CCN(C)C1CCN(C(C(=O)O)c2ccc(F)c(Cl)c2)CC1 (stereo not drawn)	4.652	7.463	-2.469	12.88
Cc1cc(CN2CC[C@H]3C(=O)N(c4ccccc4)CCO[C@H]3C2)no1	-	7.104	6.995	-
O[C@@H]1C[C@@H](c2nc(-c3cccnc3)no2)N(C2CCOCC2)C1	-5.442	5.435	5.96	-3.972
O=C(CCc1ccco1)Nc1ccc(Br)cn1	18.46	1.235	-6.143	17.69
O=C(O)C(F)(F)F.O=C(O)C(F)(F)F.[H][C@@]12OCCN(CC3CCOCC3)[C@@]1([H])CC[C@H]2OCCCn1cccn1	15.76	-	-	33.71
CN(C)c1cccc(C(=O)NCC(O)c2cccs2)c1 (stereo not drawn)	-4.751	-1.02	-2.122	10.08
CN(C)CCN1CCC2(CC1)CN(c1cccnc1)C(=O)CO2	-0.1614	3.867	5.656	-6.32
CCCNC(=O)c1nn(CC)cc1NC(=O)c1c(C)nn(C)c1C	3.838	9.845	-0.7856	3.965
Cc1nc(CN2CCCn3c(nc(Cn4cncn4)cc3=O)C2)cs1.O=C(O)C(F)(F)F	-0.8626	-	-	16.7
CCOC(=O)c1cnn(-c2cc(Oc3ccccc3)ncn2)c1N	9.257	-1.754	7.746	2.993
NC(=O)CN1CCC(OCc2ccc(Cl)c(Cl)c2)CC1	1.334	7.921	3.641	39.98
CC(C)N1CC(C(=O)NCc2cccnc2-n2cccn2)CC1=O (stereo not drawn)	11.35	5.572	7.105	24.6
Fc1ccc(CNCCn2cccn2)c(F)c1	-16.51	0.8772	-4.478	-5.942
O=C(O)C(F)(F)F.O=C(O)C(F)(F)F.[H][C@@]12CN(Cc3nccn3C)C[C@]1([H])OCCN2Cc1c(C)noc1C	-5.693	-	-	27.34
CN(C)C(=O)N1CCc2ccc(=O)[nH]c2CC1	-0.5682	5.882	1.138	4.611
CC(Nc1ncnc2sccc12)c1cnn(C)c1 (stereo not drawn)	2.804	8.671	-3.97	24.03

6 of the entries, repeated:

Compound	Toxoplasma	TcHisRS	CoaBC	Leishmania in macrophages
COCC(=O)N1CCc2[nH]nc(-c3ccc4c(c3)OCO4)c2C1	16.42	0	3.738	21.2
CN(C)CCN1CCC2(CC1)CN(c1cccnc1)C(=O)CO2	-0.1614	3.867	5.656	-6.32
CC(C)N1CC(C(=O)NCc2cccnc2-n2cccn2)CC1=O (stereo not drawn)	11.35	5.572	7.105	24.6
CNc1oc(-c2ccc(OC)c(S(=O)(=O)N3CCCCC3)c2)nc1C#N	-6.336	-1.639	6.864	30.32
CCCNC(=O)c1nn(CC)cc1NC(=O)c1c(C)nn(C)c1C	3.838	9.845	-0.7856	3.965
NC1CCN(S(=O)(=O)c2ccc(C(=O)N3CCSCC3)cc2)C1 (stereo not drawn)	0.1198	2.062	7.547	-4.19